Protein sequences, listed by entry. Tags and fused reporters are not part of them. Lines headed by an entry give the natural chain unless they say otherwise; changes in a name come on top. Chains listed by the source or under a name are the forms on record and can include a tag or linker.
entire unstructured N-terminal region (including the YG domain) of Arabidopsis thaliana PEX13, amino acids 1–193 (Q9SRR0, form named): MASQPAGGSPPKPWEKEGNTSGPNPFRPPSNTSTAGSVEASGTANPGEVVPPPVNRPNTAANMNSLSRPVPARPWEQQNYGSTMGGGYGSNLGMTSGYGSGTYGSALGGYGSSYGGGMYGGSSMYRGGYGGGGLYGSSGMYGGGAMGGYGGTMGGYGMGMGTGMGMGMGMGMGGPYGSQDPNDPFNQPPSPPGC
UniProt A0A1L8FDW4: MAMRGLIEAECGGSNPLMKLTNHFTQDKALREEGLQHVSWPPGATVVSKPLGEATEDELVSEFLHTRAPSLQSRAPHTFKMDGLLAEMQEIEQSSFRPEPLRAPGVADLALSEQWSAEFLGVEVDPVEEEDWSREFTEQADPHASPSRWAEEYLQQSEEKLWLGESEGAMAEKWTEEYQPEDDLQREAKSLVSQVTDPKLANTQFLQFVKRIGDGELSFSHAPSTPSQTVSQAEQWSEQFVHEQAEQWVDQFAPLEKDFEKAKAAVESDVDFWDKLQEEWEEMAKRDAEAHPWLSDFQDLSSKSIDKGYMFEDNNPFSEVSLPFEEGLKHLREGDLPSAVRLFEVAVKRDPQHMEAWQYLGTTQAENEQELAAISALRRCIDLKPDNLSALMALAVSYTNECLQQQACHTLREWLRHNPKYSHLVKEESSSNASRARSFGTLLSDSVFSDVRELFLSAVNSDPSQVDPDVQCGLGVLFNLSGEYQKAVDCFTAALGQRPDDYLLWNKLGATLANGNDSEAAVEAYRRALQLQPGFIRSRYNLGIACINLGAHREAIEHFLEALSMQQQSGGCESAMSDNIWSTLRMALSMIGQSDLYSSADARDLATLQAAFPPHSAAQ

In publication PMC9795577:

Key:
[1] = target: entire unstructured N-terminal region (including the YG domain) of Arabidopsis thaliana PEX13, amino acids 1–193 (Arabidopsis thaliana) (UniProt Q9SRR0); assay: hydrogel permeation assay (confocal microscopy); droplets of the PEX13 1-193 hydrogel (40 mg/ml) in 25 mM HEPES-KOH pH 7.8, 130 mM KCl; GFP fusion proteins or GFP alone added at 500 nM; enrichment inside the gel over buffer after 30 min; both purified
[2] = target: entire unstructured N-terminal region (including the YG domain) of Arabidopsis thaliana PEX13, amino acids 1–193 (Arabidopsis thaliana) (UniProt Q9SRR0); assay: hydrogel permeation assay (confocal microscopy); droplets of the PEX13 1-193 hydrogel (40 mg/ml) in 25 mM HEPES-KOH pH 7.8, 130 mM KCl; GFP or GFP-SKL with or without non-fluorescent PEX5 variants, all proteins at 500 nM; enrichment of the GFP cargo inside the gel over buffer after 30 min; both purified

Row | Substance | binding [1] | binding [2]
1 | N-terminal region of PEX5 (amino acids 1–268, including all WxxxF/Y motifs) fused to GFP (from UniProt A0A1L8FDW4) (domain or fragment) | binds | –
2 | cargo-binding TPR domain of PEX5 (amino acids 260–579) fused to GFP (from UniProt A0A8J0TE97) (domain or fragment) | binds weakly | –
3 | full-length PEX5 lacking all of the WxxxF/Y motifs (non-fluorescent) (from UniProt A0A1L8FDW4) (receptor) | – | no binding (tested: 500 nM)

No constants are given. Whether binding was seen depends on the method and setting. For part of these data: Binding can be weak; no strength is given.
